Laboratory results: PubChem BioAssay AID743121 (NCATS, 2013)
Here is an unselected part of about 26,000 reagents. Over the whole deposit, 167 (0.63%) are marked active. 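Calls are per gene from RSA p-values that are not deposited; an individual active-marked siRNA can sensitise only weakly.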 Entries without a mark were called inactive. The numbers tell different reagents against one gene apart. Further read-outs or replicates are left out here.

Test: 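Partners whose loss is lethal together with topoisomerase I blockade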 (primary screen)
System: MDA-MB-231 cells, a human breast cancer line
Reagent: single siRNA against human genes, 20 nM siRNA (0.8 pmol per well)
Time to read-out: 120 h (drug added 48 h after transfection, read 72 h later)
Challenge: camptothecin 20 nM (about EC30) for 72 h; vehicle 0.1% DMSO in parallel plates
Measured: 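Cell viability by ATP luminescence (CellTiter-Glo) as % of non-targeting siRNA wells, and the log2 ratio of viability without drug over viability with camptothecin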
Direction: log2 vehicle/camptothecin viability: higher = stronger sensitisation to camptothecin
Rule for the call: 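Active genes have an RSA gene-level p-value below 0.001, computed from the ratios of their separate siRNAs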

log2 vehicle/camptothecin viability, by gene symbol and reagent
NCOA2 (nuclear receptor coactivator 2): #1 -0.15; #2 -0.267; #3 -0.284; #4 -0.283
GALC (galactosylceramidase): #1 -0.32; #2 -0.441; #3 -0.197; #4 -0.161
BARD1 (BRCA1 associated RING domain 1): #1 -0.0725; #2 -0.108; #3 0.842
TGM7 (transglutaminase 7): #1 -0.036; #2 -0.0358; #3 0.0243
MORN5 (MORN repeat containing 5): #1 -0.178; #2 -0.257; #3 0.0512; #4 -0.158
AFM (afamin): #1 -0.297; #2 0.204; #3 -0.247
NR1I3 (nuclear receptor subfamily 1 group I member 3): #1 -0.683; #2 0.153; #3 -0.581; #4 -0.62
OXTR (oxytocin receptor): #1 0.0822; #2 -0.391; #3 -0.166; #4 0.153
AATF (apoptosis antagonizing transcription factor): #1 -0.103; #2 -0.367; #3 -0.542; #4 -0.301
ADCY10 (adenylate cyclase 10): #1 -0.196; #2 0.273; #3 -0.447; #4 -0.357
PBRM1 (polybromo 1): #1 0.00719; #2 -0.26; #3 -0.309; #4 0.0813
KCNMA1 (potassium calcium-activated channel subfamily M alpha 1): #1 -0.213; #2 -0.235; #3 0.234
CBL (Cbl proto-oncogene): #1 -0.0761; #2 -0.417; #3 -0.167; #4 -0.209
HTR1E (5-hydroxytryptamine receptor 1E): #1 0.241; #2 1.05; #3 -0.368
CCDC136 (coiled-coil domain containing 136): #1 -0.191; #2 0.245; #3 -0.493; #4 -0.038
POLR1C (RNA polymerase I and III subunit C): #1 0.451; #2 0.189; #3 -0.32
HTR4 (5-hydroxytryptamine receptor 4): #1 -0.453; #2 -0.235; #3 0.0139; #4 0.293
TRMT9B (tRNA methyltransferase 9B (putative)): #1 0.213; #2 -0.439; #3 -0.234; #4 -0.219
PEX19 (peroxisomal biogenesis factor 19): #1 0.171; #2 -0.345; #3 -0.0722
APOA2 (apolipoprotein A2): #1 0.491; #2 -0.541; #3 -0.7; #4 -0.688
GLP1R (glucagon like peptide 1 receptor): #1 0.417; #2 -0.309; #3 -0.533; #4 -0.154
NR5A1 (nuclear receptor subfamily 5 group A member 1): #1 -0.0742; #2 -0.548; #3 -0.835; #4 -0.0683
FBXO10 (F-box protein 10): #1 -0.534; #2 -0.413; #3 0.382; #4 -0.442
TCFL5 (transcription factor like 5): #1 -0.522; #2 -0.0909; #3 0.374; #4 -0.0354

Ordered by “log2 vehicle/camptothecin viability” (lowest first): some entries from above.
gene symbol	reagent	log2 vehicle/camptothecin viability
CCDC136 (coiled-coil domain containing 136)	3	-0.493
HTR4 (5-hydroxytryptamine receptor 4)	1	-0.453
HTR1E (5-hydroxytryptamine receptor 1E)	3	-0.368
POLR1C (RNA polymerase I and III subunit C)	3	-0.32
HTR4 (5-hydroxytryptamine receptor 4)	2	-0.235
CBL (Cbl proto-oncogene)	4	-0.209
CCDC136 (coiled-coil domain containing 136)	1	-0.191
CBL (Cbl proto-oncogene)	3	-0.167
CCDC136 (coiled-coil domain containing 136)	4	-0.038
HTR4 (5-hydroxytryptamine receptor 4)	3	0.0139
POLR1C (RNA polymerase I and III subunit C)	2	0.189
HTR1E (5-hydroxytryptamine receptor 1E)	1	0.241
CCDC136 (coiled-coil domain containing 136)	2	0.245
POLR1C (RNA polymerase I and III subunit C)	1	0.451
HTR1E (5-hydroxytryptamine receptor 1E)	2	1.05
